The results in this text go back to PubChem BioAssay AID248 (DTP/NCI, 2004).

The structures appear in SMILES notation. The list shows only some results of the screen, not a fair sample: it gathers tests that were run many times, whatever their T/C, doses with no T/C, and many T/C values between a quarter and a half above the control. Other doses and runs of a compound stand elsewhere. T/C gives the treated animals as a percentage of the vehicle group. Some entries give survivors of the animals treated and no T/C: the source holds a T/C of zero for them, seemingly a mark for toxic or unscored doses. Some doses without a T/C left all or most animals alive at the check, yet need not have been tolerated: the source hardly ever lists a survival T/C far under the control, and the zero likely stands for such cases as well. Counts of survivors are from the toxicity check (mostly the fifth day) where no day follows; animals may have died later. Schedules are NCI's codes, read here as Q, the interval in days (D) or hours (H), X, the number of doses. Some entries hold several experiments; their values stand side by side, smallest first. Some schedule codes hold Z or #, which are not explained here. Where survival is the endpoint, the PubChem record calls one and a half times the control and up active, and a quarter to a half above the control has no call in these data; cut-offs in other NCI protocols can differ. Brackets with × say how often a value occurs here. Some T/C values carry the count of animals alive at the toxicity check (mostly the fifth day); where none is given, no animal had died by that day.

This test has as its system L1210 leukemia ip in BDF1 mice, survival T/C. In words: NCI In Vivo Anticancer Drug Screen. Data for tumor model L1210 Leukemia (intraperitoneal) in B6D2F1 (BDF1) mice. The note with it: T/C endpoint: mean survival time, higher T/C = longer survival.
Setting [1] is: dose: 400.0 mg/kg/injection, schedule: Q04DX003 (ip), vehicle: Klucel (hydroxypropylcellulose) (HPC).
Where [2] appears, read: dose: 300.0 mg/kg/injection, schedule: Q01DX001 (ip), vehicle: saline.
Setting [3] is: dose: 200.0 mg/kg/injection, schedule: Q04DX002 (ip), vehicle: Klucel (hydroxypropylcellulose) (HPC).
Setting [4] is: dose: 400.0 mg/kg/injection, schedule: Q04DX002 (ip), vehicle: Klucel (hydroxypropylcellulose) (HPC).
[5] abbreviates: dose: 50.0 mg/kg/injection, schedule: Q01DX009 (ip), vehicle: saline.
Setting [6] is: dose: 400.0 mg/kg/injection, schedule: Q04DX003 (ip), vehicle: saline with Tween-80.
Where [7] appears, read: dose: 200.0 mg/kg/injection, schedule: Q01DX009 (ip), vehicle: saline with Tween-80.

Consider `c1ccc2c(c1)ccc1cc3cccc[n+]3cc12`, for which the survivor count was 3 of 6 (dose: 2.5 mg/kg/injection, schedule: Q01DX009 (ip), vehicle: saline); 0 of 6 and 6 of 6 (dose: 5.0 mg/kg/injection, schedule: Q01DX009 (ip), vehicle: saline); 4 of 6 (dose: 10.0 mg/kg/injection, schedule: Q01DX009 (ip), vehicle: saline); 0 of 6 (dose: 20.0 mg/kg/injection, schedule: Q01DX009 (ip), vehicle: saline); 5 of 6 (dose: 20.0 mg/kg/injection, schedule: Q04DX003 (ip), vehicle: saline).
`O=C1C=CC(=O)N1c1ccc(Cc2ccc(N3C(=O)C=CC3=O)cc2)cc1`: the survivor count (dose: 17.7 mg/kg/injection, schedule: Q01DX Z (ip), vehicle: methylcellulose (MC)) is 6 of 6.
For `COc1ccc(Cc2ccccc2)c(O)c1`, for the setting “dose: 400.0 mg/kg/injection, schedule: Q01DX009 (ip), vehicle: other”, the survivor count is 3 of 6.
Consider `O=C(Cc1ccc(N(CCCl)CCCl)cc1)NC1CCCC1`, for which the T/C under setting [1] was 132 % of control. Moreover, the survivor count (dose: 600.0 mg/kg/injection, schedule: Q04DX003 (ip), vehicle: Klucel (hydroxypropylcellulose) (HPC)) was 3 of 6 and 6 of 6.
Turning to `OCC1OC(n2cnc3c(SCc4ccccc4)nc(NO)nc32)C(O)C1O` (centres undefined), the T/C (dose: 264.0 mg/kg/injection, schedule: Q01DX001 (ip), vehicle: saline with Tween-80) is 135 % of control; the T/C (dose: 400.0 mg/kg/injection, schedule: Q01DX001 (ip), vehicle: saline with Tween-80, evaluated on day 20) was 139 % of control; the T/C (dose: 400.0 mg/kg/injection, schedule: Q01DX001 (ip), vehicle: saline with Tween-80, evaluated on day 30) is 141 % of control; the T/C (dose: 600.0 mg/kg/injection, schedule: Q01DX001 (ip), vehicle: saline with Tween-80, evaluated on day 20) is 148 % of control; the T/C (dose: 600.0 mg/kg/injection, schedule: Q01DX001 (ip), vehicle: saline with Tween-80, evaluated on day 30) was 148 % of control.
As to `CN1N=C([P+](c2ccccc2)(c2ccccc2)c2ccccc2)CC1(c1ccccc1)c1ccccc1`, the survivor count under setting [2] was 2 of 6.
On to `O=C(Nc1cccc(C2=NCCCN2)c1)Nc1cc(C(=O)Nc2ccc(C3=NCCCN3)cc2)ccc1C(=O)Nc1ccc(C2=NCCCN2)cc1`, for which, where the note is “dose: 7.5 mg/kg/injection, schedule: Q01DX Z (ip), vehicle: saline”, the T/C was 137 and 141 % of control. Besides, the survivor count by setting is: (dose: 15.0 mg/kg/injection, schedule: Q01DX Z (ip), vehicle: saline) 3 of 6; (dose: 30.0 mg/kg/injection, schedule: Q01DX Z (ip), vehicle: saline) 0 of 6; (dose: 60.0 mg/kg/injection, schedule: Q01DX Z (ip), vehicle: saline) 0 of 6; (dose: 120.0 mg/kg/injection, schedule: Q01DX Z (ip), vehicle: saline) 0 of 6.
For `OC[CH2][Hg][Br]`, the survivor count is 3 of 3 (dose: 12.5 mg/kg/injection, schedule: Q04DX002 (ip), vehicle: Klucel (hydroxypropylcellulose) (HPC)); 1 of 3 (dose: 25.0 mg/kg/injection, schedule: Q04DX002 (ip), vehicle: Klucel (hydroxypropylcellulose) (HPC)); 0 of 3 (dose: 50.0 mg/kg/injection, schedule: Q04DX002 (ip), vehicle: Klucel (hydroxypropylcellulose) (HPC)); 0 of 3 (dose: 100.0 mg/kg/injection, schedule: Q04DX002 (ip), vehicle: Klucel (hydroxypropylcellulose) (HPC)); 0 of 3 under setting [3]; 0 of 3 under setting [4].
For `COc1ccc(C2NC(=O)N3C(c4ccc(OC)cc4)NC(=O)N23)cc1` (centres undefined), the survivor count (dose: 200.0 mg/kg/injection, schedule: Q04DX003 (ip), vehicle: gum acacia) is recorded as 6 of 6.
With `O=S(=O)(Nc1cc(S(=O)(=O)c2ccccc2)c(NS(=O)(=O)c2ccccc2)cc1Cl)c1ccccc1`, the survivor count is on record as 6 of 6 (dose: 100.0 mg/kg/injection, schedule: Q01DX009 (ip), vehicle: Klucel (hydroxypropylcellulose) (HPC)) and 6 of 6 under setting [1].
Regarding `O=C(C=C(C(F)(F)F)C(F)(F)F)c1cccc(Cl)c1`, the survivor count runs as follows: under setting [5], 6 of 6; (dose: 50.0 mg/kg/injection, schedule: Q04DX003 (ip), vehicle: saline with Tween-80) 6 of 6; (dose: 100.0 mg/kg/injection, schedule: Q04DX003 (ip), vehicle: saline with Tween-80) 3 of 6; (dose: 200.0 mg/kg/injection, schedule: Q04DX003 (ip), vehicle: saline with Tween-80) 3 of 6; under setting [6], 0 of 6.
Turning to `N#CCc1c(Cl)sc(Cl)c1CC#N`, the survivor count under setting [6] is 0 of 3.
For `Cc1cc(C)c(C(=O)C(=S)N2CCOCC2)c(C)c1`, the survivor count (dose: 100.0 mg/kg/injection, schedule: Q01DX009 (ip), vehicle: acetone) is recorded as 6 of 6.
For the compound `NC(CSC(c1ccccc1)(c1ccccc1)c1ccc(Br)cc1)C(=O)O` (centres undefined), the T/C is 138 % of control [5 of 6 alive] (dose: 6.25 mg/kg/injection, schedule: Q01DX009 (ip), vehicle: saline); 142 % of control (dose: 12.5 mg/kg/injection, schedule: Q01DX009 (ip), vehicle: saline); 125 % of control (dose: 25.0 mg/kg/injection, schedule: Q01DX009 (ip), vehicle: saline). Moreover, the survivor count under setting [5] is given as 1 of 8 and the survivor count (dose: 300.0 mg/kg/injection, schedule: Q01DX001 (ip), vehicle: other) is reported as 0 of 6.
As for `O=C1C2C3CCC(O3)C2C(=O)N1Cc1ccccc1CBr` (centres undefined), the survivor count (dose: 400.0 mg/kg/injection, schedule: Q04DX003 (ip), vehicle: carboxymethylcellulose (CMC)) was 5 of 6.
`COc1ccc(-n2c(C)csc2=S)cc1`: the survivor count under setting [6] is given as 0 of 6.
Consider `CCCNC(=O)c1cccc(-c2cccc(C(=O)NCCC)c2)c1`, for which the survivor count by setting is: (dose: 100.0 mg/kg/injection, schedule: Q01DX001 (ip), vehicle: other) 4 of 4; (dose: 400.0 mg/kg/injection, schedule: Q01DX001 (ip), vehicle: other) 1 of 4.
As for `CCN(CC)CCOC(=O)C(c1ccccc1)C1C=CCCC1` (centres undefined), the survivor count under setting [2] is listed as 0 of 6.
With `[Cl][Ni][Cl].[NH-]CCN1CC1.[NH-]CCN1CC1`, the survivor count was 1 of 6 (dose: 100.0 mg/kg/injection, schedule: Q04DX003 (ip), vehicle: saline); 0 of 6 (dose: 200.0 mg/kg/injection, schedule: Q04DX003 (ip), vehicle: saline); 0 of 6 (dose: 400.0 mg/kg/injection, schedule: Q04DX003 (ip), vehicle: saline).
Consider `CC1(C(Cl)(Cl)Cl)C=CC(O)C=C1` (centres undefined), for which the survivor count is listed as 3 of 3 under setting [3]; 3 of 6 (dose: 225.0 mg/kg/injection, schedule: Q01DX009 (ip), vehicle: Klucel (hydroxypropylcellulose) (HPC)); 4 of 6 (dose: 335.0 mg/kg/injection, schedule: Q01DX009 (ip), vehicle: Klucel (hydroxypropylcellulose) (HPC)); 3 of 3 under setting [4].
Take `O=C(c1ccc(O)cc1)c1c[nH]c2c(O)ccc(O)c12`: the survivor count (dose: 100.0 mg/kg/injection, schedule: Q04DX002 (ip), vehicle: saline + alcohol) is 3 of 3.
For `CC(=O)N(C)c1ccc(NC(=S)NC(=O)c2cccc([N+](=O)[O-])c2)cc1`, the T/C (dose: 100.0 mg/kg/injection, schedule: Q01DX009 (ip), vehicle: saline with Tween-80) is 97 (2×), 101, 102 % of control and the T/C under setting [7] is 94, 95, 105 % of control. Moreover, the survivor count under setting [7] is given as 6 of 6.
Consider `[Cl][Pd][Cl].[NH-]C(c1ccccc1)C([NH-])c1ccccc1` (centres undefined), for which, under setting [4], the survivor count is recorded as 3 of 3.
Regarding `C=C1CC2(c3ccccc3)C(=O)C1(c1ccccc1)C(c1ccccc1)=C2c1ccccc1` (centres undefined), where the note is “dose: 100.0 mg/kg/injection, schedule: Q01DX001 (ip), vehicle: carboxymethylcellulose (CMC)”, the survivor count is given as 2 of 4.
